Results as given in patent US5234949A (Academic Pharmaceuticals, Inc., priority 1992, dated 1993).

Details: acetate buffer

## CCCCc1oc2ccccc2c1C(=O)c1cc(I)c(OCCN(CC)CC)c(I)c1 [Amiodarone, 2-n-butyl-3-(3,5-diiodo-4-β-N-diethylaminoethoxybenzoyl) benzofuran]
  HPLC amiodarone peak vs amiodarone dissolved in polysorbate 80: identical
